We go through two substances from paper PMC6203768.

The chains behind the UniProt entries cited, without tags or fusion partners.
UniProt P53350: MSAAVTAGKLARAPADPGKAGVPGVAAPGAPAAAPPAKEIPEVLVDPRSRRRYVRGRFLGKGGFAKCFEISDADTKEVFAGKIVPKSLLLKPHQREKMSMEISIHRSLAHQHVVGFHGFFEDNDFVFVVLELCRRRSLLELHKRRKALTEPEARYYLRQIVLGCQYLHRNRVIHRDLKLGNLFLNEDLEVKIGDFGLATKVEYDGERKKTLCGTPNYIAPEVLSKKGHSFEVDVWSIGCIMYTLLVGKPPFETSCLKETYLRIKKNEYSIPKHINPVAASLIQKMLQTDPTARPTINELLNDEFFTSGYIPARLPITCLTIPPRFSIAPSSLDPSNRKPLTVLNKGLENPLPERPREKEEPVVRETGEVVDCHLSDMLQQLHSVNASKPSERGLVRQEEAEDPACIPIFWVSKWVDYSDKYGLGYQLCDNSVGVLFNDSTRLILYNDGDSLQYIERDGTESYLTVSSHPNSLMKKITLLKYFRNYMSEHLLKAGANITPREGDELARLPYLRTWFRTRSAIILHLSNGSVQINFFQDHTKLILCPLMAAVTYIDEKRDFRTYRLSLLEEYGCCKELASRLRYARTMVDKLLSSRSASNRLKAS
UniProt Q96GD4: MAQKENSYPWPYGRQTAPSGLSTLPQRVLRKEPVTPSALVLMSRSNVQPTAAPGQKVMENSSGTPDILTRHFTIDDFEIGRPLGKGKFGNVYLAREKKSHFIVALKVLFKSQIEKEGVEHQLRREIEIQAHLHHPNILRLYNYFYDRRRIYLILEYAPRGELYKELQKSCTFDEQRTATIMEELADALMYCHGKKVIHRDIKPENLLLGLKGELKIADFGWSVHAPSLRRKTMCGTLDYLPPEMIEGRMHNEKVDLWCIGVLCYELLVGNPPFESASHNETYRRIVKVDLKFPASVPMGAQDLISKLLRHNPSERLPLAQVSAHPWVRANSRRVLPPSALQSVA

Assay [1] has as its target T1, brain-expressed X-linked 4 (BEX4), endogenous (human (endogenous in HeLa)) (UniProt Q9NWD9).
T1 sequence: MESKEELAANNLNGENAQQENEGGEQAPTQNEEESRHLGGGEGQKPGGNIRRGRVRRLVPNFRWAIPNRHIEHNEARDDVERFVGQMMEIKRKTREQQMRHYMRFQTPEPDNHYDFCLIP
Briefly: co-IP; HeLa cell extracts with or without nocodazole (200 ng/ml), immunoprecipitated with normal IgG or anti-BEX4 antibody; blotted with anti-BEX4, anti-PLK1, anti-CDK1 and anti-actin.

Assay [2] has as its target T2, Flag-tagged TAP-BEX4 (full-length human brain-expressed X-linked 4 in pTAP) (human) (UniProt Q9NWD9).
T2 sequence: T1 sequence
Briefly: pull-down; tandem affinity purification (TAP) from extracts of asynchronously growing 293T cells transfected with TAP or Flag-tagged TAP-BEX4; bound proteins blotted with anti-Flag, anti-PLK1 and anti-actin.

The target in assay [3] is T3, GST-BEX4 (full-length human BEX4 in pGEX-KG) (human) (UniProt Q9NWD9).
T3 sequence: T1 sequence
Briefly: pull-down; beads bound to GST alone or GST-BEX4, incubated with HeLa cell extracts (asynchronous; nocodazole 200 ng/ml for 16 h; released into fresh media for 2 h); bound proteins analysed by SDS-PAGE and immunoblot; only the target purified. (In general: Immunoblotting shows a protein as a band on a membrane.)

No constants are given. Whether binding was seen depends on the method and setting. Binding seen in cells or lysates may run through a third protein. Some results given as binding are weak or reduced against the parent protein; the word gives no strength. For some of these results: Sequences can lack the tags named with a protein.

With “Polo-like kinase 1 (PLK1), endogenous (from UniProt P53350 1-603) (enzyme)”, the binding result in assay [1], in assay [2] and in assay [3] was “binds” in each case.
Consider “aurora B kinase, endogenous (from UniProt Q96GD4 1-344) (enzyme)”, for which the binding entry in assay [3] is “no binding”.
